The chains behind the UniProt entries cited, without tags or fusion partners.
UniProt P09471, whole entry, looked up: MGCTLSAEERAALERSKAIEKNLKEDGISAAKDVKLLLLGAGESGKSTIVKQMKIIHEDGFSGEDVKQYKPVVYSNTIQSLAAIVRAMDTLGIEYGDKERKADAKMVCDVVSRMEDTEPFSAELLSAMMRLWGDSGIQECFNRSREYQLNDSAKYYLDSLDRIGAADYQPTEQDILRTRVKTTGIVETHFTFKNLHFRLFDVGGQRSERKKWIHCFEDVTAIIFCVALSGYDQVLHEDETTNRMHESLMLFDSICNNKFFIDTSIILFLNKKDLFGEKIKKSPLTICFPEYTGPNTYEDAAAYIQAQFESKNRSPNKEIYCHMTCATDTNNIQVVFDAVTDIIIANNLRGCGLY

In all, about 220,000 compounds went through this assay and about 770 (0.35%) were called active. Inconclusive results, whose numbers are uncertain, are shown with a selection of clear calls. Rule as the data show it: active = binding response below about 49% or above about 150%; inconclusive = no clear call, values can overlap the other calls; inactive = in between.
What follows are compounds tested against Guanine nucleotide-binding protein G(o) subunit alpha (Homo sapiens) (UniProt P09471) (assay: RGS7-Galphao binding modulators, primary screen, biochemical, multiplexed bead flow cytometry (AID 1439;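 also: fluorescent Galphao held in activated GDP-AlF4 state binding bead-coupled RGS7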)). Conditions: at 10 µM, actives lie on both sides.
For `Cc1nnc(NC(=O)CSc2ccc(-c3ccc(Cl)cc3)nn2)s1`, the binding response (% of control) was inconclusive: 84.5%. With `C#CCOCCOCCOCCNc1nc(N2CCN(C(=O)[C@H](CCC(=O)O)n3cc(C(N)Cc4ccc(O)cc4)nn3)CC2)nc(N2CCN(C(=O)[C@H](Cc3ccc(O)cc3)n3cc(C(N)[C@H](C)CC)nn3)CC2)n1` (stereo partly specified) the binding response (% of control) was inconclusive: 98.8%. For `CCN(CC)S(=O)(=O)c1ccc(NCc2ccccc2)nc1`, the binding response (% of control) was inactive: 104%. `O=C(CCS(=O)(=O)c1ccccc1)Nc1ccccc1F` was tested, and the binding response (% of control) was inconclusive: 95.5%. For `O=S(=O)(Nc1ccc(Cl)cc1)c1ccc(N2CCOCC2)c(NC(=S)NCCN2CCOCC2)c1`, the binding response (% of control) was inactive: 121%. For `COc1ccc(C(=O)NC(=S)Nc2ccc(CN3CCOCC3)cc2)cc1OC`, the binding response (% of control) was inconclusive: 90.3%. For `O=C(NCc1ccco1)c1ccc(S(=O)(=O)N2CCCc3ccccc32)cc1`, the binding response (% of control) was inactive: 88.5%. In the case of `CCN(CC)S(=O)(=O)c1ccc2c(c1)N(CC(=O)NCc1ccco1)C(=O)CO2`, the binding response (% of control) is reported as inconclusive: 97.2%. For `COc1ccccc1NS(=O)(=O)c1cccc(C(=O)NNC(=O)C(NC(N)=O)C(C)C)c1` (stereo unspecified), the binding response (% of control) was inconclusive: 111%. In the case of `Cc1ccc(-n2nnnc2SCC(=O)N(CC(C)C)c2c(N)n(CC(C)C)c(=O)[nH]c2=O)cc1`, the binding response (% of control) is reported as inconclusive: 110%. `O=C(CSc1cccc(C(F)(F)F)c1)Nc1ccc(Cl)cc1Cl` was tested, and the binding response (% of control) was inactive: 97.8%. With `Cn1c2ccccc2c(=O)c2c(=O)n(-c3ccc(F)cc3)c(-c3cccs3)nc21` the binding response (% of control) was inconclusive: 108%. In the case of `Cn1c(=O)c2c(nc(N/N=C/c3cccnc3)n2Cc2ccccc2)n(C)c1=O`, the binding response (% of control) is reported as inconclusive: 137%. For `O=C(CN1CCOCC1)Nc1ccc2c(c1)CCC2`, the binding response (% of control) was inconclusive: 107%. `CN1CCN(CCC(=O)Nc2cccc(Br)c2)CC1` was tested, and the binding response (% of control) was inconclusive: 104%. `CCn1c(=O)c([N+](=O)[O-])c(NCC2CCCO2)c2ccccc21` (stereo unspecified) was tested, and the binding response (% of control) was inconclusive: 196%. With `CCOc1c(Br)cc(CNc2ccc(N3CCN(C(C)=O)CC3)cc2)cc1OC` the binding response (% of control) was inconclusive: 106%. With `CC(NC(=S)N1CCN(c2ccccc2)CC1)c1ccccc1` (stereo unspecified) the binding response (% of control) was inconclusive: 97.5%. With `COc1ccc(/C=N/NC(=O)c2nonc2N)cc1OC` the binding response (% of control) was inconclusive: 93.3%. With `COc1ccc2c(c1)c(C(=O)CN1CCN(Cc3ccccc3)CC1)c(C)n2C` the binding response (% of control) was inconclusive: 114%. With `Cc1c(Cl)cccc1Nc1ncccc1C(=O)OCC(O)CO` (stereo unspecified) the binding response (% of control) was inconclusive: 105%. In the case of `NC(=O)CC(NC(=O)Cc1cccc2ccccc12)c1ccc(NCCc2cccc(F)c2)c([N+](=O)[O-])c1` (stereo unspecified), the binding response (% of control) is reported as inconclusive: 88.1%. In the case of `Cc1ccc2c(c1)C1CN(C)CCC1N2C(=S)NC(=O)c1ccc(Cl)cc1Cl` (stereo unspecified), the binding response (% of control) is reported as inconclusive: 98.2%. In the case of `Cc1c(C#N)c(O)n(CCO)c(=O)c1N=Nc1ccc2c(c1)COC2=O`, the binding response (% of control) is reported as inconclusive: 106%. `CN(C(=O)c1ccc2nccnc2c1)C1CCCCC1` was tested, and the binding response (% of control) was inconclusive: 72.5%. `Cc1ccc(CN(Cc2ccccc2)C(=S)NCC(=O)NCc2cccnc2)o1` was tested, and the binding response (% of control) was inactive: 99%. `O=C(OCC(=O)N1CCN(C(=O)c2ccco2)CC1)c1cccc(S(=O)(=O)N2CCc3ccccc32)c1` was tested, and the binding response (% of control) was inconclusive: 101%. For `O=c1cnnc(N/N=C/c2cccs2)[nH]1`, the binding response (% of control) was inconclusive: 100%. With `CCOC(=O)C1=C(N)c2ccccc2CC1C1CCCC1` (stereo unspecified) the binding response (% of control) was inconclusive: 68.5%. For `Cn1cc(CNCc2ccccc2OCC(O)CN2CCc3ccccc3C2)cn1` (stereo unspecified), the binding response (% of control) was inactive: 103%. In the case of `CCc1nnc(NC(=O)CSc2nc(-c3ccccc3)nc3ccccc23)s1`, the binding response (% of control) is reported as inactive: 103%. `CCN(CC)CCC(c1cc(OC)c(OC)c(OC)c1)c1c(OC)cc(OC)c2c(-c3ccccc3)cc(=O)oc12` (stereo unspecified) was tested, and the binding response (% of control) was inconclusive: 99.1%. In the case of `CCCc1cnc(N2CCN(C(=O)c3c(-c4ccccc4)noc3C)CC2)nc1`, the binding response (% of control) is reported as inconclusive: 91.3%. `COc1cccc(C(=O)Nc2cc(=O)n(C)c(=O)n2C)c1` was tested, and the binding response (% of control) was inconclusive: 73.8%. For `O=C(COC(=O)c1ccc2[nH]c3c(c2c1)CCCC3)Nc1ccccc1Cl`, the binding response (% of control) was inactive: 108%. With `Cc1nn2c(-c3ccccn3)ccnc2c1Cl` the binding response (% of control) was inconclusive: 102%. With `CCCC(=O)NC(=S)Nc1cc(-c2nc3ncccc3o2)ccc1C` the binding response (% of control) was inconclusive: 74.7%. `CC(=O)N(CCC(c1ccco1)C(C)C)Cc1ccc(OC(C)C)cc1` (stereo unspecified) was tested, and the binding response (% of control) was inconclusive: 104%. With `Nc1nc(Nc2ccccc2F)nc(NCCO)c1[N+](=O)[O-]` the binding response (% of control) was inconclusive: 482%. With `Cc1c(/N=C(\[O-])Nc2ccc(Br)cc2)sn[n+]1C` the binding response (% of control) was inconclusive: 90.3%. For `CSc1nc(C)c(C(=O)C[n+]2ccc(C)cc2)cc1C#N`, the binding response (% of control) was inconclusive: 82.1%. In the case of `C/C=C/C=N/Nc1nc(C)cc(=O)[nH]1`, the binding response (% of control) is reported as inactive: 97.9%. `Cc1cc(NC(=O)CSc2nnc(-c3ccncc3)n2Cc2ccccc2)n(-c2ccccc2)n1` was tested, and the binding response (% of control) was inconclusive: 94.4%. `COc1cc(NC(=O)c2cnc(N)o2)cc(C(=O)Nc2cccc(C(F)(F)F)c2)c1` was tested, and the binding response (% of control) was inconclusive: 94.3%. In the case of `CC(C)C[C@H](NC(=O)c1nc[nH]c1C(=O)N(C)Cc1ccccc1)C(=O)OC(C)(C)C`, the binding response (% of control) is reported as inactive: 103%. In the case of `O=C(NCCc1csc(-c2cccnc2)n1)c1ccccc1Br`, the binding response (% of control) is reported as inconclusive: 85.4%. For `O=C(CSC(=S)N1CCCCC1)Nc1ncc2c(n1)CCCC2=O`, the binding response (% of control) was inconclusive: 132%. For `Cc1c(O)c2c3c(cccc3c1O)C(=O)N(c1ccccc1)C2=O`, the binding response (% of control) was active: 161% [activator]. With `O=C(Nc1cscc1S(=O)(=O)c1ccc(Cl)cc1)c1ccccc1Cl` the binding response (% of control) was inconclusive: 112%. For `c1ccc(-n2c(-c3ccncc3)nnc2-c2ccco2)cc1`, the binding response (% of control) was inactive: 94.6%. `COc1ccccc1CN(Cc1nc2ccccc2c(=O)[nH]1)C(=O)Nc1ccccc1` was tested, and the binding response (% of control) was inactive: 104%. In the case of `CCCc1nnc(SCc2ccc(C(=O)OC)o2)n1N`, the binding response (% of control) is reported as inactive: 101%. In the case of `C/C=C/c1ccc(OCC(=O)OCC)c(OC)c1`, the binding response (% of control) is reported as inconclusive: 127%. In the case of `COc1ccc(NC(=O)CN(C)CC(=O)Nc2ccc(Cl)c(S(=O)(=O)N(C)C)c2)cc1`, the binding response (% of control) is reported as inconclusive: 106%. `O=[N+]([O-])c1cc(CN2CCC(O)CC2)ccc1Cl` was tested, and the binding response (% of control) was inconclusive: 95.7%. In the case of `Cc1cccc(N(CC(=O)NCc2ccco2)C(=O)CCC(=O)Nc2nccs2)c1`, the binding response (% of control) is reported as inactive: 101%. In the case of `CC(=O)N(CCC1(C(C)C)CCOC(C)(C)C1)C(C)c1cccs1` (stereo unspecified), the binding response (% of control) is reported as inconclusive: 95.2%. In the case of `CN(C)n1cccc1/C=C(\C#N)S(=O)(=O)c1ccc(Cl)cc1`, the binding response (% of control) is reported as inconclusive: 122%. For `Cc1onc(-c2ccccc2)c1C(=O)NCC(O)c1ccccc1` (stereo unspecified), the binding response (% of control) was inconclusive: 94.4%. With `CC(=O)N1N=C(c2ccccc2OC(=O)/C=C/c2ccccc2)CC1c1ccccc1` (stereo unspecified) the binding response (% of control) was inconclusive: 85.5%. With `CC1(C(=O)O)CCC(C(N)=O)C1(C)C` (stereo unspecified) the binding response (% of control) was inconclusive: 80.7%. For `CSc1nsc2nc(=O)c(/C=C3\C(C)=Nc4ccccc43)c(N)n12`, the binding response (% of control) was inconclusive: 110%. In the case of `COc1ccc(OC)c(C2=NOC(C(=O)Nc3cccc(C(C)=O)c3)C2)c1` (stereo unspecified), the binding response (% of control) is reported as active: 303% [activator]. In the case of `c1ccn2cc(-c3ccc4c(c3)OCO4)cc2c1`, the binding response (% of control) is reported as inconclusive: 62.3%. In the case of `COc1ccc(C2CC(C(F)(F)F)n3nc(C(=O)O)cc3N2)cc1` (stereo unspecified), the binding response (% of control) is reported as inconclusive: 82%. With `O=C1C(NS(=O)(=O)c2cccs2)=C(N2CCOCC2)C(=O)c2ccccc21` the binding response (% of control) was inconclusive: 84%. `O=c1cc(COc2ncnc3ccccc23)nc2sccn12` was tested, and the binding response (% of control) was inconclusive: 93.7%. `O=C(NCC(=O)N(CC1CCCO1)C(C(=O)NC1CCCCC1)c1cccnc1)c1cccs1` (stereo unspecified) was tested, and the binding response (% of control) was inactive: 99.7%. For `CCO[C@@H]1OC(C(=O)NCc2ccccc2)=C[C@H](c2ccc(C(F)(F)F)cc2)[C@H]1CCCO`, the binding response (% of control) was inactive: 111%. `O=C(c1cc([N+](=O)[O-])ccc1N1CCOCC1)N1CCCC1` was tested, and the binding response (% of control) was inactive: 86.3%. For `CCCCCCN(C(=O)CCCCCN1C(=O)NC(c2ccc(-c3ccccc3)cc2)C(C(=O)OCc2ccccc2)=C1C)C(C(=O)NCCCC)c1ccccc1` (stereo unspecified), the binding response (% of control) was inconclusive: 125%. In the case of `CCc1nnc(NC(=O)c2cccc(S(=O)(=O)N3CCN(c4ccccc4)CC3)c2)s1`, the binding response (% of control) is reported as active: 150% [activator]. For `COc1cc(/C=N/NS(=O)(=O)c2ccc3ccccc3c2)ccc1OCc1ccc(C(=O)O)cc1`, the binding response (% of control) was inconclusive: 105%. `COc1cc(C2Nc3ccccc3C(=O)N2NS(C)(=O)=O)ccc1O` (stereo unspecified) was tested, and the binding response (% of control) was inconclusive: 109%. `CCCCCCC(C)NC(=S)Nc1cc(S(=O)(=O)N(C)C)ccc1C` (stereo unspecified) was tested, and the binding response (% of control) was inactive: 97.9%. `CCOc1ccccc1CN1CCN(Cc2nc3c(s2)CCCC3)CC1CCO` (stereo unspecified) was tested, and the binding response (% of control) was inactive: 111%. In the case of `O=[N+]([O-])c1ccc2c(c1)C(O)n1nc(-c3ccccc3)nc1S2` (stereo unspecified), the binding response (% of control) is reported as inconclusive: 111%. In the case of `CCCCOc1ccc(S(=O)(=O)Nc2ccc(NC(C)=O)cc2)cc1`, the binding response (% of control) is reported as inactive: 106%. `Nc1cccnc1Oc1ccc(F)cc1F` was tested, and the binding response (% of control) was inconclusive: 27.6%. For `COc1ccc(NC(=O)c2ccc(COc3ccc(C)cc3)o2)cc1`, the binding response (% of control) was inactive: 96.7%. For `Fc1ccc(NC(=S)N2CCCC(c3ccccc3)=N2)cc1`, the binding response (% of control) was inconclusive: 143%. `CCOc1ccc2nc(N/C(N)=N/C(=S)Nc3cccc(OC)c3)nc(C)c2c1` was tested, and the binding response (% of control) was inconclusive: 151%. For `CN(C)/C=N/c1nc(Sc2ccc(C(F)(F)F)cc2[N+](=O)[O-])n[nH]1`, the binding response (% of control) was inconclusive: 203%. For `Cc1cc(C)cc(NC(=S)N2CCC(NC(=O)c3ccccc3C)CC2)c1`, the binding response (% of control) was inactive: 102%. In the case of `COc1ccc(/C=C/C(=O)Nc2ccc(C)cc2)cc1S(=O)(=O)N1CCOCC1`, the binding response (% of control) is reported as inconclusive: 127%. In the case of `O=C(O)c1ccccc1CSc1ccccn1`, the binding response (% of control) is reported as inactive: 125%.

— PubChem BioAssay AID1439 (NMMLSC, 2008)
